{"source": "PubChem BioAssay AID540276", "about": "(National Center for Advancing Translational Sciences (NCATS), 2011)", "note": "Among all 300,000 compounds or so, about 5,400 (1.8%) were called active. Inconclusive means that the source gave no clear call. Such entries were picked first, then a sample of the others. The call rests on the fitted dose curve; tested in HEK293 cells. Where the call is inconclusive, the potency comes from a doubtful curve fit. Potency means the concentration at half of the fitted maximal effect.", "data": [{"assay": "qHTS for inhibitors of binding or entry into cells for Marburg Virus", "conditions": "Marburg virus pseudotyped entry inhibition, cell reporter; series mostly up to 37.8 µM", "values": [{"smiles": "CC(=O)c1ccc(OCC(O)CN2CCN(Cc3ccc4c(c3)OCO4)CC2)cc1", "note": "(centres undefined)", "Potency": "inactive"}, {"smiles": "CCOc1ncccc1C(=O)NCc1ccccc1F", "Potency": "inconclusive: 3.55 µM [activator, single point]"}, {"smiles": "CCCC(=O)Nc1sc2c(c1C#N)CC(C)(C)NC2(C)C", "Potency": "inactive"}, {"smiles": "O=C(Nc1ccc2cn[nH]c2c1)c1ccccc1F", "Potency": "inconclusive: 0.112 µM [activator, full curve, poor fit]"}, {"smiles": "O=[N+]([O-])c1cnc(Nc2ccc(Cl)cn2)c([N+](=O)[O-])c1", "Potency": "inconclusive: 1.78 µM [inhibitor, partial curve, poor fit]"}, {"smiles": "c1ccc(C2=NC(c3cccs3)=NC2c2ccccc2)cc1", "note": "(centres undefined)", "Potency": "inconclusive: 20.6 µM [inhibitor, single point]"}, {"smiles": "CC(C)C(NC(=O)c1c(F)cccc1F)C(=O)NCCc1ccc(S(N)(=O)=O)cc1", "note": "(centres undefined)", "Potency": "inconclusive: 0.891 µM [inhibitor, full curve, poor fit]"}, {"smiles": "CCN1C(=O)/C(=C\\N(C)C)c2ccccc21", "Potency": "inconclusive: 29.1 µM [activator, single point]"}, {"smiles": "Cc1ccc(-c2nn(-c3cc(Cl)ccc3[N+](=O)[O-])c(=O)c3ccccc23)cc1C", "Potency": "inconclusive: 12.6 µM [inhibitor, single point]"}, {"smiles": "CC(=O)Nc1ccc(NC(=O)CSc2ncnc3c2cnn3Cc2ccccc2)cc1", "Potency": "inconclusive: 1 µM [inhibitor, partial curve, poor fit]"}, {"smiles": "O=S(=O)(/N=C(/c1ccccc1)N1CCCCCC1)c1ccccc1", "Potency": "inconclusive: 12.6 µM [inhibitor, partial curve]"}, {"smiles": "COc1cccc(NC(=O)CN2C(=O)C(c3ccc(C)cc3)=NC23CCCCCC3)c1", "Potency": "inactive"}, {"smiles": "CN(CCO)c1cc(NCCCN2CCC(Cc3ccccc3)CC2)c2nonc2c1[N+](=O)[O-]", "Potency": "inconclusive: 12.6 µM [inhibitor, partial curve, poor fit]"}, {"smiles": "O=c1cc(-c2ccccc2)nc(SCc2ccccc2)[nH]1", "Potency": "inactive"}, {"smiles": "CC(=O)Nc1ccc(S(=O)(=O)N2CCC(C(=O)c3ccc(Cl)cc3)CC2)cc1", "Potency": "inconclusive: 7.08 µM [inhibitor, partial curve, poor fit]"}, {"smiles": "CCN(CC)c1ccc(/C=C/c2cccc[n+]2C)c(OC)c1", "Potency": "active: 2.82 µM"}, {"smiles": "O=C1c2ccccc2C(=O)N1CCSc1nncs1", "Potency": "inactive"}, {"smiles": "Cc1ccc(Nc2nc(CSc3nnnn3-c3ccccc3)cc(=O)[nH]2)cc1", "Potency": "inconclusive: 12.6 µM [inhibitor, partial curve, poor fit]"}, {"smiles": "CCN(CC)S(=O)(=O)c1ccc(N)cc1", "Potency": "inconclusive: 7.08 µM [activator, partial curve, poor fit]"}, {"smiles": "CC(C)OCCCN1C(=O)c2[nH]nc(-c3ccccc3O)c2C1c1cccc(OCc2ccccc2)c1", "note": "(centres undefined)", "Potency": "inconclusive: 35.5 µM [inhibitor, single point]"}, {"smiles": "O=C(COC(=O)Cn1cnc2ccccc2c1=O)Nc1ccccc1OC(F)F", "Potency": "inactive"}, {"smiles": "C=CCn1c(NCc2ccc(OC)cc2)nc2ccccc21", "Potency": "inconclusive: 8.91 µM [inhibitor, partial curve]"}, {"smiles": "COc1cccc(N2CCN(Cc3cc(=O)oc4cc(C)ccc34)CC2)c1", "Potency": "inactive"}, {"smiles": "CCCOC(=O)c1ccc(NC(=O)CCC(=O)OCC)cc1", "Potency": "inconclusive: 3.66 µM [activator, full curve, poor fit]"}, {"smiles": "Cc1ccn(-c2ccc([N+](=O)[O-])cc2)n1", "Potency": "inactive"}, {"smiles": "COc1ccc(CN2CCN(S(=O)(=O)c3ccc(C)cc3)CC2)cc1Br", "Potency": "inconclusive: 32.6 µM [inhibitor, single point]"}, {"smiles": "Cc1ccc2c(c1)C(c1ccc(F)cc1)N(C(=O)c1cccc(C(F)(F)F)c1)CC(=O)N2", "note": "(centres undefined)", "Potency": "inconclusive: 2.24 µM [inhibitor, single point]"}, {"smiles": "O=C(/C=C/c1ccc2c(c1)OCO2)NCCS(=O)(=O)N1CCN(c2ccc(F)cc2)CC1", "Potency": "inconclusive: 12.6 µM [inhibitor, single point]"}, {"smiles": "COc1cccc2cc(S(=O)(=O)c3ccccc3)c(=Nc3ccc4c(c3)OCCO4)oc12", "Potency": "inactive"}, {"smiles": "CCN1CCN(c2ccc(S(=O)(=O)N3CCCCC3)cc2NC(=O)Cc2ccc(OC)cc2)CC1", "Potency": "inconclusive: 6.31 µM [activator, single point]"}, {"smiles": "C=CCn1c(-c2cc(-c3ccc(C)cc3)nc3ccccc23)n[nH]c1=S", "Potency": "inconclusive: 14.1 µM [inhibitor, single point]"}, {"smiles": "Oc1ccc(Cl)cc1N=Cc1sc2ccccc2c1Cl", "Potency": "inconclusive: 7.08 µM [inhibitor, full curve, poor fit]"}, {"smiles": "c1ccc2oc(-c3[nH]ncc3CN3CCC(N4CCSCC4)CC3)cc2c1", "Potency": "inconclusive: 16.4 µM [inhibitor, partial curve, poor fit]"}, {"smiles": "O=C(O)CNS(=O)(=O)c1ccc(F)cc1", "Potency": "inconclusive: 29.1 µM [activator, single point]"}, {"smiles": "CCN(CC)S(=O)(=O)c1ccc(O)c(C(=O)OCC(=O)N2CCCC2)c1", "Potency": "inconclusive: 11.2 µM [activator, single point]"}, {"smiles": "CCn1c(=N)n(CC(=O)c2ccco2)c2ccccc21", "Potency": "inconclusive: 10.3 µM [inhibitor, partial curve, poor fit]"}, {"smiles": "O=C(C1CCN(S(=O)(=O)c2cnc[nH]2)CC1)N1CCc2ccccc2C1", "Potency": "inactive"}, {"smiles": "Cc1ccc(NC(=O)CN(C)C(=O)Cc2c(Cl)cccc2Cl)cc1", "Potency": "inactive"}, {"smiles": "CCOC(=O)c1cc(C#N)c(SCC(=O)Nc2ccc(C(C)=O)cc2)[nH]c1=O", "Potency": "inactive"}, {"smiles": "Cc1ccc(N2C(=O)c3ccc(N)cc3C2=O)cc1", "Potency": "inconclusive: 3.16 µM [activator, partial curve, poor fit]"}, {"smiles": "C/C(=N\\NC(N)=S)C1C2C3CC4C5CC(C42)C1C53", "note": "(centres undefined)", "Potency": "inconclusive: 3.16 µM [inhibitor, full curve]"}, {"smiles": "C(=C\\c1ccccc1)/C=N/Nc1nc(N2CCOCC2)nc(N2CCOCC2)n1", "Potency": "inactive"}, {"smiles": "CCCCNC(=S)N1CCN(c2ccccc2Cl)CC1", "Potency": "inconclusive: 7.94 µM [inhibitor, partial curve, poor fit]"}, {"smiles": "COc1cccc(NC(=O)CN(C)C(=O)c2ccc(-c3cccc(C(F)(F)F)c3)o2)c1", "Potency": "inactive"}]}]}
